# Experimental data: US20060234323A1, “Luminescent ATP detection with extended linearity” (priority 2005, published 2006)
# The chains behind the UniProt entries cited, without tags or fusion partners. Where a name states a change or a piece, a line headed by the entry shows the natural chain unless it says otherwise.
# UniProt Q27757: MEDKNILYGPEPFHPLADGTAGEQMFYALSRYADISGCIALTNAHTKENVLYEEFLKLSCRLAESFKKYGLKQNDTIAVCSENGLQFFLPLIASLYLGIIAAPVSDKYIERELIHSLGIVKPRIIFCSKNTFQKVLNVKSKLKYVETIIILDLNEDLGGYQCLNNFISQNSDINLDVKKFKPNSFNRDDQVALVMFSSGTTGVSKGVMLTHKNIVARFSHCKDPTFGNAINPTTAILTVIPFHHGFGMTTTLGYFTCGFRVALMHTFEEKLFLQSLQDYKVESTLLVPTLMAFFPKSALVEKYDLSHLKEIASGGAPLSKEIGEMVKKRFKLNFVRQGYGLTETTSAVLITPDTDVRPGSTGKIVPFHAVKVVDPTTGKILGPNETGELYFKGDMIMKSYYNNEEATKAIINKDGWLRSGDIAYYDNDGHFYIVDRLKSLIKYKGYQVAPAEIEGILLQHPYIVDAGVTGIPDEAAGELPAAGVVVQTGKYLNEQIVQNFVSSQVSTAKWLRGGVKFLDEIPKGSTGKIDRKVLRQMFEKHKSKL
# Entries after “also recorded” stand apart in the source; their conditions may differ. Like-named read-outs stand apart in the source and are kept apart here. The name of at least one read-out is uncertain. Some compounds share one wording; it may come from a single statement.
# Biological target: thermostable luciferase (Luc146-1H2) (Photuris pensylvanica, UniProt Q27757)
# Type: biochemical, Photuris pennsylvanica
smiles,measurement,setting,value
"Nc1ncnc2c1ncn2[C@@H]1O[C@H](COP(O)(O)=S)[C@@H](O)[C@H]1O [5′AMPS, adenosine 5′-O-thiomonophosphate]",effect of combination with PPi on linearity and luciferase Km for ATP,,acted synergistically
same,effect of combination with PPi on linearity and luciferase Km for ATP,listed as 5′-AMPS,synergistic increase
"Nc1ncnc2c1ncn2[C@@H]1O[C@H](COP(=O)(O)OP(O)(O)=S)[C@@H](O)[C@H]1O [ADP S, adenosine 5′-[β-thio] diphosphate]",effect of combination with PPi on linearity and luciferase Km for ATP,listed as ADPβS,acted synergistically; also recorded: synergistic increase
"Nc1ncnc2c1ncn2[C@@H]1O[C@H](COP(=O)(O)O)[C@@H](O)[C@H]1O [AMP, adenosine monophosphate]",effect of combination with PPi on linearity and luciferase Km for ATP,,act synergistically; also recorded: synergistic increase
"Nc1ncnc2c1ncn2[C@H]1C[C@H](O)[C@@H](COP(=O)(O)OP(=O)(O)OP(=O)(O)O)O1 [dATP, deoxyadenosine triphosphate]",effect of combination with PPi on linearity and luciferase Km for ATP,,acted synergistically
